Results are given in words; binding and its absence hold for the method and conditions named. For some assays here: In cells and extracts the contact can be indirect. Some binding calls cover weakened binding; strength is not graded here.
What was measured:
[1] = molecular target: S1P receptor S1P5 (human) (UniProt Q9H228); assay: FRET or BRET; type-3 BRET: GFP2- and Rluc-tagged copies (12:1 pGFP2:pRluc) in HEK293T cells with untagged competitor or blank pU vector (2:1 pU:(pGFP2+pRluc)); p^diff tells whether BRETeff is affected by the competitor
[2] = molecular target: S1P receptor S1P5 (human) (UniProt Q9H228); assay: FRET or BRET; type-1 BRET: GFP2- and Rluc-tagged copies of the receptor co-expressed in HEK293T cells, acceptor:donor ratio varied at constant expression; data fitted to monomer versus dimer models (R^2); read 24 hr (some 48 hr) post-transfection
FZD5 (human) [3] = molecular target: FZD5 (human) (UniProt Q13467); assay: FRET or BRET; type-3 BRET: GFP2- and Rluc-tagged copies (12:1 pGFP2:pRluc) in HEK293T cells with untagged competitor or blank pU vector (2:1 pU:(pGFP2+pRluc)); p^diff tells whether BRETeff is affected by the competitor
FZD5 (human) [4] = molecular target: FZD5 (human) (UniProt Q13467); assay: FRET or BRET; type-1 BRET: GFP2- and Rluc-tagged copies of the receptor co-expressed in HEK293T cells, acceptor:donor ratio varied at constant expression; data fitted to monomer versus dimer models (R^2); read 24 hr (some 48 hr) post-transfection
[5] = molecular target: α2CAR, C-terminal SNAP-tag and HaloTag fusions (human) (UniProt P18825); assay: single-molecule cross-color coincidence detection (SMCCCD); HaloTag (TMR) and SNAP-tag (505 Star) fusions co-expressed at low level in CHO K1 cells; fraction of HaloTag-labeled receptors within 300 nm of a SNAP-tag-labeled receptor, compared with CD86 and CD28
[6] = molecular target: S1P receptor S1P2 (human) (UniProt O95136); assay: FRET or BRET; type-3 BRET: GFP2- and Rluc-tagged copies (12:1 pGFP2:pRluc) in HEK293T cells with untagged competitor or blank pU vector (2:1 pU:(pGFP2+pRluc)); p^diff tells whether BRETeff is affected by the competitor
[7] = molecular target: S1P receptor S1P2 (human) (UniProt O95136); assay: FRET or BRET; type-1 BRET: GFP2- and Rluc-tagged copies of the receptor co-expressed in HEK293T cells, acceptor:donor ratio varied at constant expression; data fitted to monomer versus dimer models (R^2); read 24 hr (some 48 hr) post-transfection
[8] = molecular target: α2C-adrenergic receptor (human) (UniProt P18825); assay: FRET or BRET; type-3 BRET: GFP2- and Rluc-tagged copies (12:1 pGFP2:pRluc) in HEK293T cells with untagged competitor or blank pU vector (2:1 pU:(pGFP2+pRluc)); p^diff tells whether BRETeff is affected by the competitor
[9] = molecular target: α2C-adrenergic receptor (human) (UniProt P18825); assay: FRET or BRET; type-1 BRET: GFP2- and Rluc-tagged copies of the receptor co-expressed in HEK293T cells, acceptor:donor ratio varied at constant expression; data fitted to monomer versus dimer models (R^2); read 24 hr (some 48 hr) post-transfection
[10] = molecular target: leucine-rich repeat-containing receptor LGR4 (human) (UniProt Q9BXB1); assay: FRET or BRET; type-3 BRET: GFP2- and Rluc-tagged copies (12:1 pGFP2:pRluc) in HEK293T cells with untagged competitor or blank pU vector (2:1 pU:(pGFP2+pRluc)); p^diff tells whether BRETeff is affected by the competitor
[11] = molecular target: leucine-rich repeat-containing receptor LGR4 (human) (UniProt Q9BXB1); assay: FRET or BRET; type-1 BRET: GFP2- and Rluc-tagged copies of the receptor co-expressed in HEK293T cells, acceptor:donor ratio varied at constant expression; data fitted to monomer versus dimer models (R^2); read 24 hr (some 48 hr) post-transfection

Protein sequences, listed by entry. Tags and fused reporters are not part of them. Lines headed by an entry give the natural chain unless they say otherwise; changes in a name come on top. Residues count along the entry.
UniProt Q9H228: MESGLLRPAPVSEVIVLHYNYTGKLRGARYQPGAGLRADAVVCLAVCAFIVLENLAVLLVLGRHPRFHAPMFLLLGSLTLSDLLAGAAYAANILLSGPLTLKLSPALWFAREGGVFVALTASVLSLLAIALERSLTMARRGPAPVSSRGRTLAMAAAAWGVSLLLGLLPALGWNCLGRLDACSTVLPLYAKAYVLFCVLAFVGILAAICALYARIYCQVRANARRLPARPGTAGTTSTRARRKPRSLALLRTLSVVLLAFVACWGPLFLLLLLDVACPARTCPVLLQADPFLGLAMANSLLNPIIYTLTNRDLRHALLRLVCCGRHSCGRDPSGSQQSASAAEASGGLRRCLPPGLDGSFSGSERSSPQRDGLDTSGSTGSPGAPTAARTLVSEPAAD
UniProt Q13467, residues 27-585: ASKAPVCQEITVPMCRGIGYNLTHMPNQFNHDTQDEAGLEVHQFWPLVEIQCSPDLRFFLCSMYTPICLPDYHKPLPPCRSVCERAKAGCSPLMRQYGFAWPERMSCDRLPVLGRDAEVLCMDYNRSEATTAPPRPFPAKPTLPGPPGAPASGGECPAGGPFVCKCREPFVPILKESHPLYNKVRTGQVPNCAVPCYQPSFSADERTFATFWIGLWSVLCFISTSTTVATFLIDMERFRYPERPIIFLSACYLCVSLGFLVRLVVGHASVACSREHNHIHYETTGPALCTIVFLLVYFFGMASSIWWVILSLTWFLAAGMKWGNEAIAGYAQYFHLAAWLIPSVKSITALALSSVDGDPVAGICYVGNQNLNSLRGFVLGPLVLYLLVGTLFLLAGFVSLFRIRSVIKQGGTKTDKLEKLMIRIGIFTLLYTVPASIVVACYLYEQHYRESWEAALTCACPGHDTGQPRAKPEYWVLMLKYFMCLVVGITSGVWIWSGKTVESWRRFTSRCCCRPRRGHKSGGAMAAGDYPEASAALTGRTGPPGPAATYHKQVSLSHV
UniProt P18825: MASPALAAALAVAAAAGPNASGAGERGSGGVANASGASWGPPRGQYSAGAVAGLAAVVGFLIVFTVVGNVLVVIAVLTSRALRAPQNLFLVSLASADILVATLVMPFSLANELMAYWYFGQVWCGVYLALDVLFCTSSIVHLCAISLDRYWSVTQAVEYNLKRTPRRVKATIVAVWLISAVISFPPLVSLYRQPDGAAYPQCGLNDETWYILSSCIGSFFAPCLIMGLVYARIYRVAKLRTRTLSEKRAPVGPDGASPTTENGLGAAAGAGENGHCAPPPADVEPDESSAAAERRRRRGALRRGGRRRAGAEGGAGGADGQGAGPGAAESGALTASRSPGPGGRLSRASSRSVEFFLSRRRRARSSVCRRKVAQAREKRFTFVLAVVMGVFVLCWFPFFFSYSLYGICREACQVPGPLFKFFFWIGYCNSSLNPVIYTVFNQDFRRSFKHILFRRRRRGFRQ
UniProt O95136: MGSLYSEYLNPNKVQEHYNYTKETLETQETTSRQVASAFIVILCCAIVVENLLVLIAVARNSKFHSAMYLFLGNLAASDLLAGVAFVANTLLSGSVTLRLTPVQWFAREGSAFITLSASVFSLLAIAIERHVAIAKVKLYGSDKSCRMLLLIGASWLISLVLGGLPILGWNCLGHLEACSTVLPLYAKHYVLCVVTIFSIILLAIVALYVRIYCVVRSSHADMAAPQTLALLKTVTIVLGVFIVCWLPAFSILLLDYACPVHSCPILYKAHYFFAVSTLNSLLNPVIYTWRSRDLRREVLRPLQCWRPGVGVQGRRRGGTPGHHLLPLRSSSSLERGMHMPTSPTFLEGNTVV
UniProt Q9BXB1, residues 25-951: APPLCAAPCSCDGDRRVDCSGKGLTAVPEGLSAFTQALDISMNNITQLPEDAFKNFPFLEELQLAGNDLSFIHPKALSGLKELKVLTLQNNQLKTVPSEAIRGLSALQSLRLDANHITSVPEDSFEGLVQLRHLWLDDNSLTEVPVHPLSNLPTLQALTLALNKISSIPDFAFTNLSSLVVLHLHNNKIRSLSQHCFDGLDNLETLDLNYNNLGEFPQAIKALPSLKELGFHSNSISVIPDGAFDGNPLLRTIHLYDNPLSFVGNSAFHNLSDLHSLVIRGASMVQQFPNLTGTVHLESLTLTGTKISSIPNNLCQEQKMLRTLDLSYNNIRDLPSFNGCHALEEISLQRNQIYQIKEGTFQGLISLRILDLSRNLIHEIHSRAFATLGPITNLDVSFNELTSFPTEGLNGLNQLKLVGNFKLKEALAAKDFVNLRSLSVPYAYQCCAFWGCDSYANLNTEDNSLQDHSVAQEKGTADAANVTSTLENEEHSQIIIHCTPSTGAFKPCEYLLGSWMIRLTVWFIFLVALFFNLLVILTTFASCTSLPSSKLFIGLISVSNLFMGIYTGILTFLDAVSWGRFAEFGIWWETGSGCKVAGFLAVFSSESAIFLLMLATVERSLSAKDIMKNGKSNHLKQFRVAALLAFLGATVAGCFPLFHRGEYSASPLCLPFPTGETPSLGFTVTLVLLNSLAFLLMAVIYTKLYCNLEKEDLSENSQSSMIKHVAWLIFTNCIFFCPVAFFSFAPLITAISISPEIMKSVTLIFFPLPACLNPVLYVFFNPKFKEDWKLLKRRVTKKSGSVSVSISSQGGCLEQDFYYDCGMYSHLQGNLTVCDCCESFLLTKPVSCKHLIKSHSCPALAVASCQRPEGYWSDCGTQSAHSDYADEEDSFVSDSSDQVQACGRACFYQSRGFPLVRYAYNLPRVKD

S1P receptor S1P5 (from UniProt Q9H228 1-398)
binding [1]: binds
binding [2]: binds

FZD5 (from UniProt Q13467 27-585) (receptor)
binding (FZD5 (human) [3]): binds
binding (FZD5 (human) [4]): binds

α2CAR, C-terminal SNAP-tag and HaloTag fusions (from UniProt P18825 1-462) (receptor)
binding [5]: binds weakly

S1P receptor S1P2 (from UniProt O95136 1-353)
binding [6]: binds
binding [7]: binds

α2C-adrenergic receptor (from UniProt P18825 1-462)
binding [8]: binds
binding [9]: binds

leucine-rich repeat-containing receptor LGR4 (from UniProt Q9BXB1 25-951)
binding [10]: binds
binding [11]: binds

— PMC5608970
